This series deals with T1, Glycoprotein VI (GPVI), soluble purified extracellular domain (Homo sapiens) (UniProt Q9HCN6).
T1 sequence (looked up, limits assumed): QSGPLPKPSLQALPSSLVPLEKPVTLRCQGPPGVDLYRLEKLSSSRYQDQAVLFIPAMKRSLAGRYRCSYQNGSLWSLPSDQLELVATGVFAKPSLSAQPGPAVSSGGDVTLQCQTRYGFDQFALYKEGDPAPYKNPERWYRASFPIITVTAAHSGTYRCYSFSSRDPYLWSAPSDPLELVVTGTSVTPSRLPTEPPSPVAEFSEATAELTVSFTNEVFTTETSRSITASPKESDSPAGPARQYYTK
The series can be described thus: FP filter. Conditions: 2'-F modified RNA; purified recombinant protein.

Consider eight sequences from patent publication US20130210903.

For at least one entry, the source does not settle the construct or the ends of the probe. Where a protein sequence is shown, tags need not be part of it.

In the case of “GGGAGGAACGAUGCGGGUGACGUGGACGGCGACAGCCCAGCAUAAGCCACGUGUGACAGACGACUCGCUGAGGAUCCGAGA [GPVI aptamer SEQ ID NO:12]”, the binding result is on record as “binds”.
The entry for “GGGAGGACGAUGCGGACGGCCAAACGCCUAGCAUAAGCCCAUCAGUCACUCCCACCAGACGACUCGCUGAGGAUCCGAGA [GPVI aptamer SEQ ID NO:33]” is “binds”; for “GGGAGGACGAUGCGGCAUCAGACUGCAUCCAGCAUAAGCCACCACCAGAGACCGUCAGACGACUCGCUGAGGAUCCGAGA [GPVI aptamer SEQ ID NO:11]” it is “binds”; for “GGGAGGACGAUGCGGCGAGUGUAAGCAUCACUGCAUCUAGCGUAAGCCACCCAAACAGACGACUCGCUGAGGAUCCGAGA [GPVI aptamer SEQ ID NO:7]” it is “binds”.
With “GGGAGGACGAUGCGGGCACCCAAAACAGGGGCUCACGUCUGGCAUAAGCCUGCCCACAGACGACUCGCUGAGGAUCCGAGA [GPVI aptamer SEQ ID NO:13]”, the binding result is listed as “binds”.
With “GGGAGGACGAUGCGGGUGACGUGGACGGCGACAGCCCAGCAUAAGCCACGUGUGACAGACGACUCGCUGAGGAUCCGAGA [GPVI aptamer SEQ ID NO:34]” the entry was “binds”.
With “GGGAGGACGAUGCGGGUGACGUGGACGGCGACAGCCCAGCAUAAGCCACGUGUGACAGACGACUCGCUGAGGAUCCGAGA [GPVI aptamer SEQ ID NO:45]” the entry was “binds”; with “GGGGAGGACGAUGCGGACAGUGUCACACACUUUGCGUAAGCCGCUAGCCCCCUCCGCAGACGACUCGCUGAGGAUCCGAGA [GPVI aptamer SEQ ID NO:4]”, “binds”.
